# Measurements reported in the supplement of paper PMC10338343.
# ± gives the standard deviation. The entries are a selection whose mix differs from that of the whole data set. Many entries were measured with a wide error.
# Columns and labels:
# Assay in all cases: pre-steady-state target cleavage rate (min^-1); MIWI and MILI are mouse PIWI proteins and EfPiwi is from a freshwater sponge; tags in brackets are library labels; higher = faster piRNA-guided slicing of the target
# [1] = tested on: MILI (PIWIL2) piRISC loaded with L1MC piRNA (26 nt); details: guide: L1MC piRNA 5'p-UAACUAAAUACUAUGCAAGCUGUAGG
# Procedure, shortened: (§1)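 The method was Cleave-'n-Seq, in which uncleaved targets from a transcribed, DNA-blocked target RNA library were sequenced after exposure to active affinity-purified piRISC carrying one synthetic guide, with or without GTSF1 partner protein. Reactions contained 0.1 nM library, 1 nM piRISC and, where present, 500 nM GTSF1 in HEPES–potassium acetate buffer at 33 °C for 0–8 or 0–960 min. Reads were normalised to depth and to weakly complementary targets, three trials were pooled, and k3 was capped at 0.0001 min^-1. The pre-steady-state cleavage rate came from a burst-and-steady-state fit.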
# [2] = tested on: MIWI (PIWIL1) piRISC loaded with L1MC piRNA (30 nt); details: guide: L1MC piRNA 5'p-UAACUAAAUACUAUGCAAGCUGUAGGUCCU
# Procedure, shortened: as §1
# [3] = tested on: MILI (PIWIL2) piRISC loaded with piRNA #1 (26 nt); details: guide: piRNA #1 5'p-UGAGGUAGUAGGUUGUAUAGUAUCCA; auxiliary factor: 500 nM mouse GTSF1
# Procedure, shortened: as §1
# [4] = auxiliary factor: none (no GTSF1)
# [5] = auxiliary factor: 500 nM mouse GTSF1
sequence,measurement,setting,value
UCCUCCUACAGCUUGCUAUCAUAAAUCAAA [g15:g26:cont:t1A],pre-steady-state target cleavage rate,[1]; [4],0.000107 ± 0.031
same,pre-steady-state target cleavage rate,[2]; [4],0.000577 ± 0.013
UCCUGCUACAGCUUGCAUAAGUAUUUAGUUA,pre-steady-state target cleavage rate,[1]; [4],0.0016 ± 0.0045
same,pre-steady-state target cleavage rate,[2]; [4],0.000826 ± 0.011
UCCUGGUACUCCUUGCAUAGUAUUUAGAAA,pre-steady-state target cleavage rate,[1]; [4],0.00086 ± 0.0079
same,pre-steady-state target cleavage rate,[2]; [4],0.00131 ± 0.0039
UCCUCCUACAGCUUGCAAUCAUAAAUCAAA [g14:g26:cont:t1A],pre-steady-state target cleavage rate,[1]; [4],0.000141 ± 0.018
same,pre-steady-state target cleavage rate,[2]; [4],0.000232 ± 0.012
UCCUGCUACAGCUUGCAAUCUAUUUACAAA,pre-steady-state target cleavage rate,[1]; [4],0.000157 ± 0.017
same,pre-steady-state target cleavage rate,[2]; [4],0.000495 ± 0.016
UCCUGGAUGUCGAACGUAUGUUUUUAGAUA,pre-steady-state target cleavage rate,[1]; [5],0.000118 ± 0.055
same,pre-steady-state target cleavage rate,[2]; [4],0.000206 ± 0.015
UCCUGGAUGUCGAAGCAUAGUAUUUGAGUUA,pre-steady-state target cleavage rate,[1]; [4],0.00203 ± 0.0031
same,pre-steady-state target cleavage rate,[2]; [4],0.000956 ± 0.0075
UCCUCCAACAGCUUGCAUAGUAUUUUCAAA,pre-steady-state target cleavage rate,[1]; [4],0.00125 ± 0.0039
same,pre-steady-state target cleavage rate,[2]; [4],0.00154 ± 0.0036
UCCUGGAUGUCGUUCCAUAGUAUUUACUUA,pre-steady-state target cleavage rate,[1]; [4],0.000222 ± 0.03
same,pre-steady-state target cleavage rate,[2]; [4],0.000113 ± 0.04
UCCUGCUACAGCAUGCAUAGUAUUUAGAAA,pre-steady-state target cleavage rate,[1]; [4],0.00131 ± 0.0061
same,pre-steady-state target cleavage rate,[2]; [4],0.000445 ± 0.011
UCCUGGAUCUCGUUGCAUAGUAUUUAGAAA,pre-steady-state target cleavage rate,[1]; [4],0.00189 ± 0.0033
same,pre-steady-state target cleavage rate,[2]; [4],0.00205 ± 0.0035
UCCUGGAACAGCUUGCAAUCUAUUUACAAA,pre-steady-state target cleavage rate,[1]; [4],0.000175 ± 0.013
same,pre-steady-state target cleavage rate,[2]; [4],0.000584 ± 0.015
UCCUGGAUCAGCUACGAUAGUAUUUACAAA,pre-steady-state target cleavage rate,[1]; [4],0.000187 ± 0.025
same,pre-steady-state target cleavage rate,[2]; [4],0.000282 ± 0.012
UCCUGGAUGUCGAACCUUAGUAUUUAGUAA,pre-steady-state target cleavage rate,[1]; [4],0.000408 ± 0.0085
same,pre-steady-state target cleavage rate,[2]; [4],0.000291 ± 0.012
UCCUGGAUGUGCUUGCAUAGUAUUAUCUAA,pre-steady-state target cleavage rate,[1]; [4],0.000714 ± 0.0088
same,pre-steady-state target cleavage rate,[2]; [4],0.00107 ± 0.0062
UCCUGGAUGUCGAACGAUAGAAUUUUGUUA,pre-steady-state target cleavage rate,[1]; [5],0.0028 ± 0.0077
same,pre-steady-state target cleavage rate,[2]; [5],0.00355 ± 0.0076
UCCUGGAUGUCGAUGCAUACGUAUUUAGUUA,pre-steady-state target cleavage rate,[1]; [4],0.000541 ± 0.011
same,pre-steady-state target cleavage rate,[2]; [4],0.000552 ± 0.015
UCCUGGAUGUCCUUGCAUAGUAUUAUGUAA,pre-steady-state target cleavage rate,[1]; [4],0.000525 ± 0.012
same,pre-steady-state target cleavage rate,[2]; [4],0.0007 ± 0.011
UCCUGGAUGUCGUUGUCAUAGUAUUUAGUUA,pre-steady-state target cleavage rate,[1]; [4],0.00173 ± 0.0045
same,pre-steady-state target cleavage rate,[2]; [4],0.00121 ± 0.0081
UCCUGGAUCAGCUUGCAUACAAUUUAGUAA,pre-steady-state target cleavage rate,[1]; [4],0.000715 ± 0.0077
same,pre-steady-state target cleavage rate,[2]; [4],0.000415 ± 0.0072
UCCUCCUACCGCUUGCAUAGUAUUUAGUUA,pre-steady-state target cleavage rate,[1]; [5],0.305 ± 0.015
same,pre-steady-state target cleavage rate,[2]; [5],1.34 ± 0.062
UCCUGGUACAGCUUGCAUUCUAUUUACAAA,pre-steady-state target cleavage rate,[1]; [4],0.00101 ± 0.0089
same,pre-steady-state target cleavage rate,[2]; [4],0.000219 ± 0.012
UCCUGGAUGUCGAUGGAUAGUAUAUAGUUA,pre-steady-state target cleavage rate,[1]; [4],0.000118 ± 0.046
same,pre-steady-state target cleavage rate,[2]; [4],0.00033 ± 0.023
UCCUGGAUGUCCUUGCAUAGUAAAAAGUUA,pre-steady-state target cleavage rate,[1]; [4],0.00227 ± 0.0038
same,pre-steady-state target cleavage rate,[2]; [4],0.00105 ± 0.0061
UCCUCCUACAGCAACCAUAGUAUUUAGUAA,pre-steady-state target cleavage rate,[1]; [4],0.00218 ± 0.0027
same,pre-steady-state target cleavage rate,[2]; [4],0.000951 ± 0.0056
UCCUGGAACAGCUUGCAUUCAUAAAUCAAA [g13:g23:cont:t1A],pre-steady-state target cleavage rate,[1]; [4],0.000312 ± 0.013
same,pre-steady-state target cleavage rate,[2]; [4],0.000269 ± 0.011
UCCUGGAUGAGCUUCCAUACUAUUUAGUUA,pre-steady-state target cleavage rate,[1]; [4],0.000429 ± 0.012
same,pre-steady-state target cleavage rate,[2]; [4],0.00087 ± 0.0057
UCCUGGUACUCGUUGCAUAGUAUUUAGUUA,pre-steady-state target cleavage rate,[1]; [4],0.00247 ± 0.0043
same,pre-steady-state target cleavage rate,[2]; [4],0.00152 ± 0.0048
UCCUGGAUGAGCUUGCAUAGCUAUUUAGUUA,pre-steady-state target cleavage rate,[1]; [4],0.00154 ± 0.0048
same,pre-steady-state target cleavage rate,[2]; [4],0.00266 ± 0.0034
UCCUGCUACAGCUUGCAAUAGUAUUUAGUUA,pre-steady-state target cleavage rate,[1]; [4],0.00179 ± 0.0045
same,pre-steady-state target cleavage rate,[2]; [4],0.0013 ± 0.0049
UCCUGGAUGUCGAACGUAUCGAUUUAGUUA,pre-steady-state target cleavage rate,[1]; [5],0.000113 ± 0.056
same,pre-steady-state target cleavage rate,[2]; [4],0.000159 ± 0.023
UCCUGGUACAGCUUGCAAUCUAUUUUCAAA,pre-steady-state target cleavage rate,[1]; [4],0.000806 ± 0.011
same,pre-steady-state target cleavage rate,[2]; [4],0.000171 ± 0.017
UCCUGGAUGUCGAACGUUAGUAUUUCGUUA,pre-steady-state target cleavage rate,[1]; [4],< 0.0001
same,pre-steady-state target cleavage rate,[2]; [4],0.000101 ± 0.058
UCCUGGAUGAGCUUCGUUAGUAUUUACAAA,pre-steady-state target cleavage rate,[1]; [4],0.000599 ± 0.0083
same,pre-steady-state target cleavage rate,[2]; [4],0.000681 ± 0.0067
UCCUGGAUGUCGAACCUUAGUAUUUUGUUA,pre-steady-state target cleavage rate,[1]; [4],0.000324 ± 0.015
same,pre-steady-state target cleavage rate,[2]; [4],0.000467 ± 0.013
UCCUGGAUCAGCUACCAUAGUAUUUACAAA,pre-steady-state target cleavage rate,[1]; [4],< 0.0001
same,pre-steady-state target cleavage rate,[2]; [4],0.000443 ± 0.018
UCCUGGUACAGCUUGCAUUCAAUUUACAAA,pre-steady-state target cleavage rate,[1]; [4],0.000717 ± 0.0093
same,pre-steady-state target cleavage rate,[2]; [4],0.000202 ± 0.017
UCCUGGAAGAGCUUGCAUAGUAUUUUCAAA,pre-steady-state target cleavage rate,[1]; [4],0.000145 ± 0.02
same,pre-steady-state target cleavage rate,[2]; [4],0.00136 ± 0.0046
GGAGACCUAUGAUAUCAACCUACAAGCUCA,pre-steady-state target cleavage rate,[3],0.000256 ± 0.012
GGAGACCUUACUAUUGAACCUACUACCUCA,pre-steady-state target cleavage rate,[3],0.137 ± 0.013
GGAGACCUACCUAUACAACCUACUACCUCA,pre-steady-state target cleavage rate,[3],0.117 ± 0.026
GGAGACCAUACUAUACAACCUUCUAGCUCA,pre-steady-state target cleavage rate,[3],0.00217 ± 0.0047
GGAGACCAAACUAUACAACCAACUACCUCA,pre-steady-state target cleavage rate,[3],0.00252 ± 0.0084
GGAGUGGAUACUAUACAACCUACUUGCUCA,pre-steady-state target cleavage rate,[3],0.00138 ± 0.0041
GGAGUGGAUACUUUACAUCCUACUACCUCA,pre-steady-state target cleavage rate,[3],0.253 ± 0.012
GGAGACCUAUGAUAUGAACCUAUCUACCUCA,pre-steady-state target cleavage rate,[3],0.000144 ± 0.02
GGAGACCUAUCUAUACAACCUACUACCCA,pre-steady-state target cleavage rate,[3],0.098 ± 0.019
GGAGACCUAUGAUAUCAACGUACAACCUCA,pre-steady-state target cleavage rate,[3],0.00109 ± 0.0057
GGAGACCUAUGAUAUCAACCUACUACCAGA [g4:g15:cont:t1A],pre-steady-state target cleavage rate,[3],0.000755 ± 0.0072
GGAGACCUAUGAUAUGAACCUACUAUCUCA,pre-steady-state target cleavage rate,[3],< 0.0001
GGAGAGGAUACUAUACAACCUACUUCCUGA,pre-steady-state target cleavage rate,[3],0.00168 ± 0.0042
GGAGACCUAUGAAUUCUACCUACUACCUCA,pre-steady-state target cleavage rate,[3],0.000451 ± 0.0092
GGAGACCAAACUAUACAACCUUCUACCUCA,pre-steady-state target cleavage rate,[3],0.00275 ± 0.0079
GGAGACCUAUGUAUACAACGAUGAUGGAGA [g12:g19:cont:t1A],pre-steady-state target cleavage rate,[3],0.000293 ± 0.018
GGAGACCUAUGAUAUGAACCUACUGCCUCA,pre-steady-state target cleavage rate,[3],0.00012 ± 0.022
GGAGACCUAUGAAUUCAUCCUACUACCUCA,pre-steady-state target cleavage rate,[3],0.00131 ± 0.0042
GGAGACCAUACUAUACAACCUACUGACCUCA,pre-steady-state target cleavage rate,[3],0.0765 ± 0.017
GGAGACCUAUGAUAUGAACCAUACUACCUCA,pre-steady-state target cleavage rate,[3],0.000246 ± 0.012
GGAGUGGAAACUAAACAACCUACUACCUCA,pre-steady-state target cleavage rate,[3],0.201 ± 0.02
GGAGACCAUACUUUACAACCUACUACCUCA,pre-steady-state target cleavage rate,[3],0.168 ± 0.014
GGAGACCUAACUAUACAACCUUCUACCUCA,pre-steady-state target cleavage rate,[3],0.00302 ± 0.0055
GGAGACGAUACUAUACUACCUACUACGUCA,pre-steady-state target cleavage rate,[3],0.138 ± 0.019

# Fetched one by one from the list above (4):
sequence,measurement,setting,value
UCCUGGUACAGCUUGCAUUCUAUUUACAAA,pre-steady-state target cleavage rate,[1]; [4],0.00101 ± 0.0089
UCCUGGAUGUCGUUCCAUAGUAUUUACUUA,pre-steady-state target cleavage rate,[2]; [4],0.000113 ± 0.04
UCCUGGUACUCGUUGCAUAGUAUUUAGUUA,pre-steady-state target cleavage rate,[1]; [4],0.00247 ± 0.0043
UCCUGGAAGAGCUUGCAUAGUAUUUUCAAA,pre-steady-state target cleavage rate,[1]; [4],0.000145 ± 0.02
